Source: patent publication US20180371384A1, “METHOD FOR PRODUCING ROOTING-SUPPRESSED MALT” (SUNTORY HOLDINGS LIMITED, priority 2015, published 2018)

System: barley (Sukai Golden)
Assay: Amount of rooting, yield and length of acrospires (Test Example 3)
Type: in vivo
Details: roots-removed malts from 100 g of barley
Source text: Here, the rooting amount used herein means total weight of a root thrusting out of the surface of each grain in malts which are malted from 100 g of raw material barley.
Crops of Sukai Golden harvested in the year 2013 (99% of germination ratio) were used as domestic (Japan) two-row malting barley cultivar. and steeping conditions were the same as those in Test Example 1. A standard in which steeping of barley was earned out in pure water (pH 7.0) was defined as “normal steeping bailey (Comparative Example 2),” and a standard in which steeping of barley was earned out in an aqueous solution having a pH listed in Table 3 with phosphoric acid was defined as “acidic steeping barley (Example 2),” and three batches of malts each of which was obtained by going through the steps of steeping, germination and kilning were prepared. For each of batches of the normal malts and the acidic steeping barley obtained, the weight of rooting was obtained, and an average length of acrospires and an yield were obtained in the same manner as Test Example 1 to calculate an average thereof. In addition, each of the contents of an acrid component and β-glucan was measured as follows, and the contents of enzymes were measured in the same manner as Test Example 2. […] In addition, the germination was carried out for 5 days while keeping a temperature at 20° C. In addition, an yield was calculated as X/100 (%) from X g of a weight of roots-removed malts obtained from 100 g of barley.

O=P(O)(O)O [Phosphoric Acid, phosphoric acid]
Yield (Initial pH 1.5, 223 mM): 91.8% | Yield (Initial pH 1.6, 176 mM): 91.8% | Yield (Initial pH 1.8, 82 mM): 91.2% | Yield (Initial pH 2.0, 29 mM): 90.6% | Yield (Initial pH 2.2, 18 mM): 89.0% | Yield (Initial pH 2.4, 7 mM): 87.5%
